Here are results for two molecules from article PMC9896810.

Sequences of proteins named here, by UniProt entry; tags and fusion partners are left off. A change or cut given only in a name is not applied to a line headed by its entry.
UniProt P46109: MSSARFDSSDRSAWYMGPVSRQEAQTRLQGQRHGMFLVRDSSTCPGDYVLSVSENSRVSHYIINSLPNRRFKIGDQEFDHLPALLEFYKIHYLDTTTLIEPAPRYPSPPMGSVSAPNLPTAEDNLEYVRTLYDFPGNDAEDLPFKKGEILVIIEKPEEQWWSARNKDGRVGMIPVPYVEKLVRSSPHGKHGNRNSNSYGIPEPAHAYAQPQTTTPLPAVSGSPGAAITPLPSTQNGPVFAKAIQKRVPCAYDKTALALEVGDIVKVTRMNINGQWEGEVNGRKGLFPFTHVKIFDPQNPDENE

These are yes or no findings as the source states them, for the method shown.

Assay [1] has as its target T1, C3G full-length wild type (human, isoform a, residues 4-1077) (human) (UniProt Q13905).
T1 sequence: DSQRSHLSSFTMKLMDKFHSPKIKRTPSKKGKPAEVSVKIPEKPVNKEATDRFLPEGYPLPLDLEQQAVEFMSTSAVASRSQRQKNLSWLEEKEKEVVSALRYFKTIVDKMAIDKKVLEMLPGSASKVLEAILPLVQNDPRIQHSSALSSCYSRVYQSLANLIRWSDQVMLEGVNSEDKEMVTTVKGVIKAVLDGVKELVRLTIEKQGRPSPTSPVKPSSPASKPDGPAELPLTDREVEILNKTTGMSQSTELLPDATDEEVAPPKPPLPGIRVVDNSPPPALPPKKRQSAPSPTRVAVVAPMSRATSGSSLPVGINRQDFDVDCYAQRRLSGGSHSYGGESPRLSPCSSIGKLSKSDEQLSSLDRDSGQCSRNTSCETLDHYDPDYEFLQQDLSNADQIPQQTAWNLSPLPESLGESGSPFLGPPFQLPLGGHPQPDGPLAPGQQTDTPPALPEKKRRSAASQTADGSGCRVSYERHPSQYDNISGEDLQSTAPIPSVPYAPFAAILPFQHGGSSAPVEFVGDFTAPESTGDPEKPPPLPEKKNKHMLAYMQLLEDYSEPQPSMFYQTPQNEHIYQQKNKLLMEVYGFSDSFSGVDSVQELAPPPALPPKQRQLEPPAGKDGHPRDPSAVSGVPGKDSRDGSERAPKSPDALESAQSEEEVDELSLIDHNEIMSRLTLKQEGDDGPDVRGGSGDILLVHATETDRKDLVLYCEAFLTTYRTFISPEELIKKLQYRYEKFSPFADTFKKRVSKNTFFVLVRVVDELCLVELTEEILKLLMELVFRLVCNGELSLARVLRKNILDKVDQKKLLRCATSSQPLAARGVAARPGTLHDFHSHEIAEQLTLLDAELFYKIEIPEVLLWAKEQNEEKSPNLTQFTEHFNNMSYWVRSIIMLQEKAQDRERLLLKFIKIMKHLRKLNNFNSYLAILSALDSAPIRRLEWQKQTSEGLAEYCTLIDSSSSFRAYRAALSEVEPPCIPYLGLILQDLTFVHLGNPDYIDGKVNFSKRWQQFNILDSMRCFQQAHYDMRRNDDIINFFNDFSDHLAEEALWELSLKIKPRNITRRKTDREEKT
Description: AUC + other: dynamic light scattering; sedimentation velocity and DLS of C3G (1.6 µM) or CrkL (3 to 24 µM) alone; 20 mM Tris-HCl, 300 mM NaCl, pH 7.5; mass by the Svedberg equation; both purified.

The target of assay [2] is GST-CrkL R39K W160S (human) (UniProt P46109). As to the kind of experiment: pull-down; 30 µg GST-CrkL (full-length or SH3N) with 30 µg C3G on glutathione-agarose; 20 mM Tris-HCl, 150 mM NaCl, pH 7.5, 0.01% BSA; 30 min, 4 °C; washes with 0.1% Triton X-100; coomassie or western blot; both purified. (In western blotting, separated proteins are transferred to a membrane and probed.)

B1: C3G full-length wild type (human, isoform a, residues 4-1077) (protein, UniProt Q13905-1 4-1077)
chain: DSQRSHLSSFTMKLMDKFHSPKIKRTPSKKGKPAEVSVKIPEKPVNKEATDRFLPEGYPLPLDLEQQAVEFMSTSAVASRSQRQKNLSWLEEKEKEVVSALRYFKTIVDKMAIDKKVLEMLPGSASKVLEAILPLVQNDPRIQHSSALSSCYSRVYQSLANLIRWSDQVMLEGVNSEDKEMVTTVKGVIKAVLDGVKELVRLTIEKQGRPSPTSPVKPSSPASKPDGPAELPLTDREVEILNKTTGMSQSTELLPDATDEEVAPPKPPLPGIRVVDNSPPPALPPKKRQSAPSPTRVAVVAPMSRATSGSSLPVGINRQDFDVDCYAQRRLSGGSHSYGGESPRLSPCSSIGKLSKSDEQLSSLDRDSGQCSRNTSCETLDHYDPDYEFLQQDLSNADQIPQQTAWNLSPLPESLGESGSPFLGPPFQLPLGGHPQPDGPLAPGQQTDTPPALPEKKRRSAASQTADGSGCRVSYERHPSQYDNISGEDLQSTAPIPSVPYAPFAAILPFQHGGSSAPVEFVGDFTAPESTGDPEKPPPLPEKKNKHMLAYMQLLEDYSEPQPSMFYQTPQNEHIYQQKNKLLMEVYGFSDSFSGVDSVQELAPPPALPPKQRQLEPPAGKDGHPRDPSAVSGVPGKDSRDGSERAPKSPDALESAQSEEEVDELSLIDHNEIMSRLTLKQEGDDGPDVRGGSGDILLVHATETDRKDLVLYCEAFLTTYRTFISPEELIKKLQYRYEKFSPFADTFKKRVSKNTFFVLVRVVDELCLVELTEEILKLLMELVFRLVCNGELSLARVLRKNILDKVDQKKLLRCATSSQPLAARGVAARPGTLHDFHSHEIAEQLTLLDAELFYKIEIPEVLLWAKEQNEEKSPNLTQFTEHFNNMSYWVRSIIMLQEKAQDRERLLLKFIKIMKHLRKLNNFNSYLAILSALDSAPIRRLEWQKQTSEGLAEYCTLIDSSSSFRAYRAALSEVEPPCIPYLGLILQDLTFVHLGNPDYIDGKVNFSKRWQQFNILDSMRCFQQAHYDMRRNDDIINFFNDFSDHLAEEALWELSLKIKPRNITRRKTDREEKT
Take B1: the binding result in assay [1] was “no binding (tested: 1.6 µM)”.

B2: Src-phosphorylated C3G (pC3G), wild type (protein, UniProt Q13905-1 4-1077)
chain: DSQRSHLSSFTMKLMDKFHSPKIKRTPSKKGKPAEVSVKIPEKPVNKEATDRFLPEGYPLPLDLEQQAVEFMSTSAVASRSQRQKNLSWLEEKEKEVVSALRYFKTIVDKMAIDKKVLEMLPGSASKVLEAILPLVQNDPRIQHSSALSSCYSRVYQSLANLIRWSDQVMLEGVNSEDKEMVTTVKGVIKAVLDGVKELVRLTIEKQGRPSPTSPVKPSSPASKPDGPAELPLTDREVEILNKTTGMSQSTELLPDATDEEVAPPKPPLPGIRVVDNSPPPALPPKKRQSAPSPTRVAVVAPMSRATSGSSLPVGINRQDFDVDCYAQRRLSGGSHSYGGESPRLSPCSSIGKLSKSDEQLSSLDRDSGQCSRNTSCETLDHYDPDYEFLQQDLSNADQIPQQTAWNLSPLPESLGESGSPFLGPPFQLPLGGHPQPDGPLAPGQQTDTPPALPEKKRRSAASQTADGSGCRVSYERHPSQYDNISGEDLQSTAPIPSVPYAPFAAILPFQHGGSSAPVEFVGDFTAPESTGDPEKPPPLPEKKNKHMLAYMQLLEDYSEPQPSMFYQTPQNEHIYQQKNKLLMEVYGFSDSFSGVDSVQELAPPPALPPKQRQLEPPAGKDGHPRDPSAVSGVPGKDSRDGSERAPKSPDALESAQSEEEVDELSLIDHNEIMSRLTLKQEGDDGPDVRGGSGDILLVHATETDRKDLVLYCEAFLTTYRTFISPEELIKKLQYRYEKFSPFADTFKKRVSKNTFFVLVRVVDELCLVELTEEILKLLMELVFRLVCNGELSLARVLRKNILDKVDQKKLLRCATSSQPLAARGVAARPGTLHDFHSHEIAEQLTLLDAELFYKIEIPEVLLWAKEQNEEKSPNLTQFTEHFNNMSYWVRSIIMLQEKAQDRERLLLKFIKIMKHLRKLNNFNSYLAILSALDSAPIRRLEWQKQTSEGLAEYCTLIDSSSSFRAYRAALSEVEPPCIPYLGLILQDLTFVHLGNPDYIDGKVNFSKRWQQFNILDSMRCFQQAHYDMRRNDDIINFFNDFSDHLAEEALWELSLKIKPRNITRRKTDREEKT
modifications: phosphotyrosines (phosphorylated in vitro by Src; sites not stated)
As to B2, the binding entry in assay [2] is given as “no binding”.
